# Assay results as given in the supplement of paper PMC10849652.
# Amino acid sequences for entries named in this document (tags omitted). A change or cut given only in a name is not applied to a line headed by its entry.
# UniProt Q8NB46: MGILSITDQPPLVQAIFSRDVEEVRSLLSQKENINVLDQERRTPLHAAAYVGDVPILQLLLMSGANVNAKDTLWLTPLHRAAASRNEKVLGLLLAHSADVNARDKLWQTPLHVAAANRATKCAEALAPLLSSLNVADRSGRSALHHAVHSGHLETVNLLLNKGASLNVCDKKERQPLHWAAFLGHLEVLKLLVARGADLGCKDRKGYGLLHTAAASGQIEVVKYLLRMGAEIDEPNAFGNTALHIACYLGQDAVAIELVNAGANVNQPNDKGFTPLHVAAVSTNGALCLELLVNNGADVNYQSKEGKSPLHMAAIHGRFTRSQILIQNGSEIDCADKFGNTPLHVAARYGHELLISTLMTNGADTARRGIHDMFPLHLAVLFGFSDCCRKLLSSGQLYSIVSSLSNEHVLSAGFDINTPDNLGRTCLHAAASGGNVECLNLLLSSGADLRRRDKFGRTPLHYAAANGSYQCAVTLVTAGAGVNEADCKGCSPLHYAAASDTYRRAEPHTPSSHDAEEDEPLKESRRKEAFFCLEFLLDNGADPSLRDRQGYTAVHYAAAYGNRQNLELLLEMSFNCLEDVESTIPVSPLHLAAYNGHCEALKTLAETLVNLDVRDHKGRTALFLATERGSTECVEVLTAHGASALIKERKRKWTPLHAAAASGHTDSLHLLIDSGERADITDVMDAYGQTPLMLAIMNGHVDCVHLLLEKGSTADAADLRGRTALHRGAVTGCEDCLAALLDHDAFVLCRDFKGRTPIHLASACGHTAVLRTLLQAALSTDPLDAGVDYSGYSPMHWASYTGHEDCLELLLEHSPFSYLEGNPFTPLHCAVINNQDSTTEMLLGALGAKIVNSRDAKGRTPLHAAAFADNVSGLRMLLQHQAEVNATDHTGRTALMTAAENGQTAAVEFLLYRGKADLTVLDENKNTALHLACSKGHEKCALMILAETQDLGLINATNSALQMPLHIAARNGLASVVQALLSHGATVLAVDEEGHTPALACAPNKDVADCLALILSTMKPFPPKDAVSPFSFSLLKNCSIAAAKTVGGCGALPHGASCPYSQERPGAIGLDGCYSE
# UniProt Q01432: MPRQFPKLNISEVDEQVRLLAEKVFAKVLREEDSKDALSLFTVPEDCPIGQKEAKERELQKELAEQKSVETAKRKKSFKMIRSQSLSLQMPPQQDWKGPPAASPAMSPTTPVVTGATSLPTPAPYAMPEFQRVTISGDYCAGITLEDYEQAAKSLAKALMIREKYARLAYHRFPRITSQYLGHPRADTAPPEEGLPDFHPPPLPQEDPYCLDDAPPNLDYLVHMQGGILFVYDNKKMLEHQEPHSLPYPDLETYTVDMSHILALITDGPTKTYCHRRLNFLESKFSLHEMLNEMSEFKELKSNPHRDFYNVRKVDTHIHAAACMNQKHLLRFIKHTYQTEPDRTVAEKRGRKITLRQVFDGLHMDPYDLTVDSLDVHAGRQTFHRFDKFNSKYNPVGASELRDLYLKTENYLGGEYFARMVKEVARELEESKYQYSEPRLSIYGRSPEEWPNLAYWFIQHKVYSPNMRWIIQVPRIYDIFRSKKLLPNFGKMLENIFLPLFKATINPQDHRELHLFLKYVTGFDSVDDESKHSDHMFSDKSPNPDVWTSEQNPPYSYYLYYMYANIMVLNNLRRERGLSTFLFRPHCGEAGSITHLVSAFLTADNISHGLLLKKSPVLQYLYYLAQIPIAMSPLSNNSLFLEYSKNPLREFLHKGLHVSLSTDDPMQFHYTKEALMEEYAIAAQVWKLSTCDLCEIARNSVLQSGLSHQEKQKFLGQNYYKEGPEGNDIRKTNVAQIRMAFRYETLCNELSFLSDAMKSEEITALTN
# UniProt P63010: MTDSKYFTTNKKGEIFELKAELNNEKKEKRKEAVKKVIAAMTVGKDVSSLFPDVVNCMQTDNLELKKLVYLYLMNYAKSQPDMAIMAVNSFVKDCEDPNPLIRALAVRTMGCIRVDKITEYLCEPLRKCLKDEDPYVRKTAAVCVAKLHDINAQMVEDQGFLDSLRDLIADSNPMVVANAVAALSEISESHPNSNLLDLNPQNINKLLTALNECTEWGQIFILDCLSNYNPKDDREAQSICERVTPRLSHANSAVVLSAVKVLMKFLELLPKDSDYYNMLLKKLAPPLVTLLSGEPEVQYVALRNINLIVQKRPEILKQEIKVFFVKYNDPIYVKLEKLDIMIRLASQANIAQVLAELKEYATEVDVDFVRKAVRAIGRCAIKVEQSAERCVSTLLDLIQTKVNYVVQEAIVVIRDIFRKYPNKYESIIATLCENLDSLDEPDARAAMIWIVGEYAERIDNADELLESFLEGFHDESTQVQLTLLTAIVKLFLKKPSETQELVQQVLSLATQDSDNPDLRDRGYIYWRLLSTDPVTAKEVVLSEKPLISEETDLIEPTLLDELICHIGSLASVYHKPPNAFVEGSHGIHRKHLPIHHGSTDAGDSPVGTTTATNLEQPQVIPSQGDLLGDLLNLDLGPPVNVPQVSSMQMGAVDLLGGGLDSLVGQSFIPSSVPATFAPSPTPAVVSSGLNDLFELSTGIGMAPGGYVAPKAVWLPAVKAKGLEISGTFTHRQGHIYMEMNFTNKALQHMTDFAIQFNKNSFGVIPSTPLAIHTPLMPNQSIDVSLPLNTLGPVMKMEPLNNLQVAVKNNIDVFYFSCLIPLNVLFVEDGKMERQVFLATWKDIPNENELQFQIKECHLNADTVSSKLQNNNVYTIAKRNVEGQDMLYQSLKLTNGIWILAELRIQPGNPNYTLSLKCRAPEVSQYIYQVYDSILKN
# UniProt P07355, whole entry, looked up: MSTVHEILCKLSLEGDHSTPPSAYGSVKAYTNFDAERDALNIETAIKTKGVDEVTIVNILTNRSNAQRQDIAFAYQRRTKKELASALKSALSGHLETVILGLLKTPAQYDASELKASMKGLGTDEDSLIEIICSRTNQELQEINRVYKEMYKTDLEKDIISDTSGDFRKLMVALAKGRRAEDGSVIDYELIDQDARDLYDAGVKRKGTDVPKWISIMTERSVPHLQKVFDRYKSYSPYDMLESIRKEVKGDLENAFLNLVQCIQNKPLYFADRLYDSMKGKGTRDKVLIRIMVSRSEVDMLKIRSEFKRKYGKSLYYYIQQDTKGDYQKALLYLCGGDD
# UniProt P08133: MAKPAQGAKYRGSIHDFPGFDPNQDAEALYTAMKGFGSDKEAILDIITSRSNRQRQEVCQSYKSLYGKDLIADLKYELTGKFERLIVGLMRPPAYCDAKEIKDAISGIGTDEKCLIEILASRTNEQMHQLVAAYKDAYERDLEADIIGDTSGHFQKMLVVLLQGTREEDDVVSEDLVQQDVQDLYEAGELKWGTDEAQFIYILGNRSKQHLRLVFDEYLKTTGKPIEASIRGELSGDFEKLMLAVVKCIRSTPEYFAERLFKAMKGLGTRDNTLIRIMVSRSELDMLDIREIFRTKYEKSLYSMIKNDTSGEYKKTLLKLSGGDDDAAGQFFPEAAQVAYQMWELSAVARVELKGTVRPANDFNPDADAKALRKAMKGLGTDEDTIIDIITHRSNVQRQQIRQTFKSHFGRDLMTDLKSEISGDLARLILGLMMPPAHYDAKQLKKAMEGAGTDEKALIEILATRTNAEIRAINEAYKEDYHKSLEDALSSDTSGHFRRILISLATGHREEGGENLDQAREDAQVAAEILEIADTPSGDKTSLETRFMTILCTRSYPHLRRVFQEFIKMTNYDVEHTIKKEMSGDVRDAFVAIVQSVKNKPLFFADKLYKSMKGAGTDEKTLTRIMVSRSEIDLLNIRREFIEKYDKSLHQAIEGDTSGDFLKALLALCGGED
# UniProt P05091: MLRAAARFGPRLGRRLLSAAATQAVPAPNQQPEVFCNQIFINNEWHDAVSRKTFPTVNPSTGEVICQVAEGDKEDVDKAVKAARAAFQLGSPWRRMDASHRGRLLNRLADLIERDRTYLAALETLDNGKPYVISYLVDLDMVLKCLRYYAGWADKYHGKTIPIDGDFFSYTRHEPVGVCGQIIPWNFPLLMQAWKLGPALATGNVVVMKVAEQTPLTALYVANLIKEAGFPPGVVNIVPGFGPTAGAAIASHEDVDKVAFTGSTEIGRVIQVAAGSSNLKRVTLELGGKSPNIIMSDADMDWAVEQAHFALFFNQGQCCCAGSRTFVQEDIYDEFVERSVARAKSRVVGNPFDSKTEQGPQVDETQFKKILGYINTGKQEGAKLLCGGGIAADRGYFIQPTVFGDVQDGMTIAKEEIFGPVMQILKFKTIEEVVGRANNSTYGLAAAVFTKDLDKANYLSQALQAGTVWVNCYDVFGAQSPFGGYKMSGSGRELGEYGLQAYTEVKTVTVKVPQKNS
# UniProt Q96NW4, whole entry, looked up: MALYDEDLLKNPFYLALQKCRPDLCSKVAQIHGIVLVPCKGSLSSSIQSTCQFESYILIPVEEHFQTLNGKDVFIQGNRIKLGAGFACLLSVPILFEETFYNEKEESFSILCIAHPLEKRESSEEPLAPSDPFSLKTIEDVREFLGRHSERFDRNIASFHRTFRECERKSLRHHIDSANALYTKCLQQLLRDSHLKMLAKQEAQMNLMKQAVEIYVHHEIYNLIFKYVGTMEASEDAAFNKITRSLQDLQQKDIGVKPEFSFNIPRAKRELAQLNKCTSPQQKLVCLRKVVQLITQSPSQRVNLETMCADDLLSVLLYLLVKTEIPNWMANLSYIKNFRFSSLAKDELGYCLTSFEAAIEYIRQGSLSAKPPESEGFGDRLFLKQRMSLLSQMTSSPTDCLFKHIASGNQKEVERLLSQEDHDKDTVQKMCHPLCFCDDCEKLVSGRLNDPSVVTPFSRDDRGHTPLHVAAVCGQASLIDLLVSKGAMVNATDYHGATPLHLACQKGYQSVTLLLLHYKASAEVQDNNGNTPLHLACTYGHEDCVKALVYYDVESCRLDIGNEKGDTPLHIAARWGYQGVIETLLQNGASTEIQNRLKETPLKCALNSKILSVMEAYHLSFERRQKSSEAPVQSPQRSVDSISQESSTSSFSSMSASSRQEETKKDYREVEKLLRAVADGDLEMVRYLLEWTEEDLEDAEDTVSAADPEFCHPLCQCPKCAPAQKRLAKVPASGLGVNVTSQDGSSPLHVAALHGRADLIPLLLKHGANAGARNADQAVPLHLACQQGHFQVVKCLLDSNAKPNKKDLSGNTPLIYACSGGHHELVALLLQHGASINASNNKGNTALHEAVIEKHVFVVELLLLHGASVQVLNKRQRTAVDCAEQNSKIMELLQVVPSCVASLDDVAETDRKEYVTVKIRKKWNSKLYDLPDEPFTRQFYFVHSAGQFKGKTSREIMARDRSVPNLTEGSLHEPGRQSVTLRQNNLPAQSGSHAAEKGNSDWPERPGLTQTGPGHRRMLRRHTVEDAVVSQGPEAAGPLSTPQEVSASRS
# UniProt Q92688: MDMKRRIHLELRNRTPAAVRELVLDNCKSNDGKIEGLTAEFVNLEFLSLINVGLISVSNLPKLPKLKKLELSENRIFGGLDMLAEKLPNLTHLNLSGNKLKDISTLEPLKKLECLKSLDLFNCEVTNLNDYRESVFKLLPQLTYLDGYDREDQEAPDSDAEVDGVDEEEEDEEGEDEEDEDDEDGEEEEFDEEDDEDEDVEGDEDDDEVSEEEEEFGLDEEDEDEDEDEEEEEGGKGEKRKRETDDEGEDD
# UniProt P12429: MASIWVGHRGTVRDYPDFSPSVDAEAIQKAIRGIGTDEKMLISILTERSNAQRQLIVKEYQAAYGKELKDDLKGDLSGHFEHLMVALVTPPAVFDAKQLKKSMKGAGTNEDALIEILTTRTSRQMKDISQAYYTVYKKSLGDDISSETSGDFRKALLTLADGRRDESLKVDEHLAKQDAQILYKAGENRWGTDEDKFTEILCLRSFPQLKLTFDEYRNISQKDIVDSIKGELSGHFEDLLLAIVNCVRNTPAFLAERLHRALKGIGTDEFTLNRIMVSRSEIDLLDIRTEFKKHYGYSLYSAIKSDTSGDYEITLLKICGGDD
# UniProt Q5VTE6: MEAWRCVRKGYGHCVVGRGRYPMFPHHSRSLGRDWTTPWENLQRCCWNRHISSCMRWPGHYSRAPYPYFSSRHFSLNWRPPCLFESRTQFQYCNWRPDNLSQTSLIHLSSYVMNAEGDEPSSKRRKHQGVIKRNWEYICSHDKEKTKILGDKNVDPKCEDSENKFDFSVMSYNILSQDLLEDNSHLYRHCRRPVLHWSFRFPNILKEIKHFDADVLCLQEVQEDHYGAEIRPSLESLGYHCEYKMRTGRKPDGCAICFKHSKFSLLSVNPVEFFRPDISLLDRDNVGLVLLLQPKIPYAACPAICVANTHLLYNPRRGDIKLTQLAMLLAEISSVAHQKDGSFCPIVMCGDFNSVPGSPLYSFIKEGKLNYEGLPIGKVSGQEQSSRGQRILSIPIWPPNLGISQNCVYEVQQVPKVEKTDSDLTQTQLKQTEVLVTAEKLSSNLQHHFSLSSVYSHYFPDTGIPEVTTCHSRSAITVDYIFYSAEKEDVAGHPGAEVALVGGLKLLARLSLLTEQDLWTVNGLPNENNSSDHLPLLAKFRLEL
# Some of the results follow.
# Compound: C1=CC=C2C(=C1)C3=NNC4=CC=CC(=C43)C2=O
# Experiment: log2 fold change, soluble protein after heating vs DMSO (PISA); higher = thermal stabilisation; K562 lysate, 10 uM; active = over 0.2 and 3.5 SD of the protein, either way, in both replicates (recomputed)
# Outline: (§1)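 To prepare the extract, K562 pellets were dounce-homogenised in PBS pH 7.4 with 1 mM MgCl2, giving crude material at 1 mg/mL protein. This was treated with 10 μM compound for 30 min, then heated in aliquots for 3 min over 48°C-58°C before pooling and addition of NP-40 to 0.5% at 4°C. Centrifugation at 21,000xg for 90 min left soluble protein in the supernatant, which TMTpro 16plex LC-MS/MS quantified with equalised channel sums. Results are log-two fold changes in thermal stability compared with solvent controls, from duplicates.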
row,Target,log2 fold change
1,ANKRD54 (UniProt Q6NXT1),inactive: 0.02
2,AP1S2 isoform 2 (UniProt P56377),inactive: 0.037
3,ALDH1A1 (UniProt P00352),inactive: 0.132
4,ALDH6A1 (UniProt Q02252),inactive: -0.031
5,ANXA11 (UniProt P50995),inactive: -0.016
6,ANO6 (UniProt Q4KMQ2),inactive: -0.019
7,ALDH1B1 (UniProt P30837),active: 0.262
8,AP4E1 (UniProt Q9UPM8),inactive: -0.052
9,ALG12 (UniProt Q9BV10),inactive: 0.056
10,ANKFY1 isoform 4 (UniProt Q9P2R3),inactive: -0.022
11,ANKRD52 (UniProt Q8NB46),inactive: -0.092
12,AP3M2 (UniProt P53677),inactive: -0.198
13,ALYREF (UniProt Q86V81),inactive: 0.058
14,ANXA7 (UniProt P20073),inactive: -0.013
15,AKT1S1 isoform 3 (UniProt Q96B36),inactive: -0.015
16,AMPD3 isoform 4 (UniProt Q01432),inactive: 0.027
17,AP2B1 isoform 2 (UniProt P63010),inactive: -0.06

row,Target,log2 fold change
1,ALKBH8 isoform 4 (UniProt Q96BT7),inactive: -0.025
2,AP3M1 (UniProt Q9Y2T2),inactive: 0.019
3,ANXA2 isoform 2 (UniProt P07355),inactive: 0.025
4,ANXA6 (UniProt P08133),inactive: -0.004
5,ALDH4A1 (UniProt P30038),inactive: -0.013
6,AP2S1 (UniProt P53680),inactive: -0.051
7,ALDH2 (UniProt P05091),inactive: 0.175
8,ANKRD27 (UniProt Q96NW4),inactive: -0.094
9,ANP32B (UniProt Q92688),inactive: 0.031
10,ANXA3 (UniProt P12429),inactive: -0.016
11,ALDOC (UniProt P09972),inactive: 0.008
12,AP4B1 (UniProt Q9Y6B7),inactive: -0.022
13,ANLN (UniProt Q9NQW6),inactive: -0.019
14,AP1S1 (UniProt P61966),inactive: 0.076
15,ANGEL2 (UniProt Q5VTE6),inactive: -0.033
16,AP2A1 (UniProt O95782),inactive: -0.032

# Compound: C1CCN(C1)C(=O)NC2=CC=CC(=C2)NC3=NC=C(C(=N3)NCCC4=CN=CN4)Br
# Experiment: as above
# Outline: as §1
row,Target,log2 fold change
1,ANKRD54 (UniProt Q6NXT1),inactive: 0.008
2,AP1S2 isoform 2 (UniProt P56377),inactive: -0.019
3,ALDH1A1 (UniProt P00352),inactive: 0.027
4,ALDH6A1 (UniProt Q02252),inactive: -0.022
5,ANXA11 (UniProt P50995),inactive: 0.011
6,ANO6 (UniProt Q4KMQ2),inactive: -0.036
7,ALDH1B1 (UniProt P30837),inactive: -0.025
8,AP4E1 (UniProt Q9UPM8),inactive: -0.021
9,ALG12 (UniProt Q9BV10),inactive: -0.017
10,ANKFY1 isoform 4 (UniProt Q9P2R3),inactive: 0.029
11,ANKRD52 (UniProt Q8NB46),inactive: 0.008
12,AP3M2 (UniProt P53677),inactive: -0.081
13,ALYREF (UniProt Q86V81),inactive: -0.009
14,ANXA7 (UniProt P20073),inactive: 0
15,AKT1S1 isoform 3 (UniProt Q96B36),inactive: 0.034
16,AMPD3 isoform 4 (UniProt Q01432),inactive: -0.002
17,AP2B1 isoform 2 (UniProt P63010),inactive: -0.026

row,Target,log2 fold change
1,ALKBH8 isoform 4 (UniProt Q96BT7),inactive: 0.144
2,AP3M1 (UniProt Q9Y2T2),inactive: -0.004
3,ANXA2 isoform 2 (UniProt P07355),inactive: -0.006
4,ANXA6 (UniProt P08133),inactive: 0.008
5,ALDH4A1 (UniProt P30038),inactive: -0.012
6,AP2S1 (UniProt P53680),inactive: -0.043
7,ALDH2 (UniProt P05091),inactive: 0.011
8,ANKRD27 (UniProt Q96NW4),inactive: -0.036
9,ANP32B (UniProt Q92688),inactive: 0.001
10,ANXA3 (UniProt P12429),inactive: -0.014
11,ALDOC (UniProt P09972),inactive: -0.014
12,AP4B1 (UniProt Q9Y6B7),inactive: -0.018
13,ANLN (UniProt Q9NQW6),inactive: -0.045
14,AP1S1 (UniProt P61966),inactive: 0.015
15,ANGEL2 (UniProt Q5VTE6),inactive: 0.018
16,AP2A1 (UniProt O95782),inactive: -0.048

# Compound: C1CN(CCC1(CC2=CC=C(C=C2)Cl)N)C3=NC=NC4=C3C=CN4
# Experiment: as above
# Outline: as §1
row,Target,log2 fold change
1,ANKRD54 (UniProt Q6NXT1),inactive: -0.035
2,AP1S2 isoform 2 (UniProt P56377),inactive: -0.022
3,ALDH1A1 (UniProt P00352),inactive: 0.012
4,ALDH6A1 (UniProt Q02252),inactive: 0.015
5,ANXA11 (UniProt P50995),inactive: 0.033
6,ANO6 (UniProt Q4KMQ2),inactive: -0.009
7,ALDH1B1 (UniProt P30837),inactive: 0.048
8,AP4E1 (UniProt Q9UPM8),inactive: -0.032
9,ALG12 (UniProt Q9BV10),inactive: 0.081
10,ANKFY1 isoform 4 (UniProt Q9P2R3),inactive: 0.003
11,ANKRD52 (UniProt Q8NB46),inactive: 0.072
12,AP3M2 (UniProt P53677),inactive: 0.088
13,ALYREF (UniProt Q86V81),inactive: 0.012
14,ANXA7 (UniProt P20073),inactive: 0.007
15,AKT1S1 isoform 3 (UniProt Q96B36),inactive: -0.034
16,AMPD3 isoform 4 (UniProt Q01432),inactive: -0.002
17,AP2B1 isoform 2 (UniProt P63010),inactive: 0.029

row,Target,log2 fold change
1,ALKBH8 isoform 4 (UniProt Q96BT7),inactive: -0.019
2,AP3M1 (UniProt Q9Y2T2),inactive: -0.007
3,ANXA2 isoform 2 (UniProt P07355),inactive: -0.001
4,ANXA6 (UniProt P08133),inactive: -0.018
5,ALDH4A1 (UniProt P30038),inactive: 0.03
6,AP2S1 (UniProt P53680),inactive: -0.052
7,ALDH2 (UniProt P05091),inactive: 0.023
8,ANKRD27 (UniProt Q96NW4),inactive: 0
9,ANP32B (UniProt Q92688),inactive: -0.016
10,ANXA3 (UniProt P12429),inactive: -0.012
11,ALDOC (UniProt P09972),inactive: 0.018
12,AP4B1 (UniProt Q9Y6B7),inactive: 0.188
13,ANLN (UniProt Q9NQW6),inactive: -0.002
14,AP1S1 (UniProt P61966),inactive: -0.018
15,ANGEL2 (UniProt Q5VTE6),inactive: 0.013
16,AP2A1 (UniProt O95782),inactive: 0.008
